Among the data in the supplement of paper PMC10735217 are TEAD-luciferase reporter activity values, retold here.

Each structure is given as a SMILES string. Counter-ions that a name gives are not always drawn. Some of the results follow. Repeats in this data set agree poorly, so a single value says little.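 Human kidney-derived cells stably carry a construct in which eight TEAD-binding elements drive luciferase, measured by luminescence in a drug-repurposing library screen. A hit is any compound whose signal exceeds the plate mean by more than five robust Z scores.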

For this test, the system named is HEK293A TEAD-LUC reporter. Briefly: TEAD-luciferase reporter activity (YAP activation), robust Z score vs plate; higher = stronger YAP/TEAD activation. To be noted: 24 h. (In general: Reporter assays use an easily measured gene product as a stand-in for the process of interest.)

For the compound `CCC(C)(C)/N=C(\NC#N)Nc1cccnc1`, the TEAD-luciferase reporter activity (compound concentration: 2 uM) was inactive: 1.26.
Take `C=CCSS(=O)CC=C` (stereo unspecified) [Allicin]: the TEAD-luciferase reporter activity was inactive: 0.069 (compound concentration: 2 uM) and inactive: 1.37 (compound concentration: 10 uM).
As for `CCN(CC)CCCNc1nccc2c(C)c3[nH]c4ccc(O)cc4c3c(C)c12`, the TEAD-luciferase reporter activity is inactive: -1.68 (compound concentration: 200 nM), inactive: 0.768 (compound concentration: 2 uM) and inactive: 4.52 (compound concentration: 10 uM).
Regarding `Cc1ccc(NC(=O)NCCCCN2CCN(c3csc4cc(C(F)(F)F)ccc34)CC2)cc1`, the TEAD-luciferase reporter activity is, setting by setting: (compound concentration: 200 nM) inactive: -1.14; (compound concentration: 2 uM) inactive: -1.98; (compound concentration: 10 uM) inactive: 0.911.
`Cc1ccn(-c2ccc(C(=O)N3Cc4cccn4Cc4ccccc43)c(Cl)c2)n1`: the TEAD-luciferase reporter activity was inactive: -0.817 (compound concentration: 200 nM), inactive: -0.338 (compound concentration: 2 uM) and inactive: 0.678 (compound concentration: 10 uM).
With `N=C(N)NCCCCNC(=N)N` [Arcarine], the TEAD-luciferase reporter activity (compound concentration: 2 uM) is inactive: 0.0644.
Take `N=C(N)NCCCCNC(=N)N` [Arcaine sulfate]: the TEAD-luciferase reporter activity (compound concentration: 200 nM) was inactive: -0.41 and the TEAD-luciferase reporter activity (compound concentration: 10 uM) is inactive: 0.0262.
In the case of `O=C(N[C@@H](c1ccccc1)[C@@H]1CCCCN1)c1cccc(C(F)(F)F)c1Cl`, the TEAD-luciferase reporter activity reads like this: (compound concentration: 200 nM) inactive: 0.342; (compound concentration: 2 uM) inactive: -1.54; (compound concentration: 10 uM) inactive: 2.73.
As for `COC(=O)[C@H](C)NP(=O)(OC[C@H]1O[C@@H](n2cc(/C=C/Br)c(=O)[nH]c2=O)C[C@@H]1O)Oc1ccccc1` (stereo partly specified) [Thymectacin], the TEAD-luciferase reporter activity was inactive: -1.66 (compound concentration: 200 nM), inactive: -0.627 (compound concentration: 2 uM) and inactive: 1.5 (compound concentration: 10 uM).
The like results for `Nc1ncnc2c1C(=O)N(c1ccc([C@H]3CC[C@H](CC(=O)O)CC3)cc1)CCO2` were, in that order, inactive: 1.1, inactive: -0.346 and inactive: -0.426.
As to `CC[C@@H](C)[C@@H](CO[C@@H](Cc1ccccc1)C(=O)N[C@@H](CCS(C)(=O)=O)C(=O)OC(C)C)NC[C@@H](N)CS`, the TEAD-luciferase reporter activity runs as follows: (compound concentration: 200 nM) inactive: -0.798; (compound concentration: 2 uM) inactive: -0.304; (compound concentration: 10 uM) inactive: 1.68.
For the compound `CC(C)(C)NC[C@H](O)COc1cccc2c1CCCC2=O` [Levobunolol?HCl], the TEAD-luciferase reporter activity was inactive: -0.258 (compound concentration: 200 nM) and inactive: -0.755 (compound concentration: 10 uM).
As to `CC(C)(C)NC[C@H](O)COc1cccc2c1CCCC2=O` [levobunolol], the TEAD-luciferase reporter activity (compound concentration: 2 uM) is inactive: -1.57.
In the case of `COc1cc2oc(=O)c(C)c(C)c2cc1OCCCN1CCN(c2ccccc2OC)CC1`, the TEAD-luciferase reporter activity was inactive: -1.77 (compound concentration: 200 nM), inactive: -0.612 (compound concentration: 2 uM) and inactive: -0.433 (compound concentration: 10 uM).
The like results for `CCCCCCCCCCCCCCCCCC(N)=O` were, in that order, inactive: -1.42, inactive: 0.62 and inactive: 1.84.
On to `COc1cn(-c2ccc(-n3cccn3)cc2F)nc(-c2ccnn2-c2ccccc2)c1=O`, for which the TEAD-luciferase reporter activity is inactive: -2.05 (compound concentration: 200 nM), inactive: -0.738 (compound concentration: 2 uM) and inactive: 0.423 (compound concentration: 10 uM).
The corresponding values for `CC(C)CCCC(C)CCCC(C)CCCCC(C)CCCC(C)CCCC(C)C` (stereo unspecified) are inactive: 0.707, inactive: 0.648 and inactive: -0.433.
The corresponding values for `CCCOC1CCC(N(C(=O)Nc2ncc(SCC(=O)O)s2)C2CCCCC2)CC1` (stereo unspecified) are inactive: -1.04, inactive: -0.744 and inactive: -0.713.
As for `COc1ccc2c(c1OC)C(C1c3c(cc4c(c3OC)OCO4)CCN1C)OC2=O` (stereo unspecified), the TEAD-luciferase reporter activity reads like this: (compound concentration: 200 nM) inactive: -1.46; (compound concentration: 2 uM) inactive: 0.328; (compound concentration: 10 uM) inactive: 0.987.
As to `CC(C)(C)NCc1cc(Nc2ccnc3cc(Cl)ccc23)c2c(c1O)CCCC2` [Naphthoquine phosphate], the TEAD-luciferase reporter activity is inactive: -0.381 (compound concentration: 200 nM) and inactive: 1.44 (compound concentration: 10 uM).
`CCCCCCCCCCCC[N+](C)(C)C`: the TEAD-luciferase reporter activity runs as follows: (compound concentration: 200 nM) inactive: -1.37; (compound concentration: 2 uM) inactive: -1.98; (compound concentration: 10 uM) inactive: -0.851.
The corresponding values for `Cc1cc(-n2nc3ccc(Cl)cc3n2)c(O)c(C(C)(C)C)c1` are inactive: -0.378, inactive: 2.08 and inactive: -0.429.
The like results for `O=C(Cn1c(=O)sc2ccc(Cl)cc21)N1CCN(CCO)CC1` [tiaramide] were, in that order, inactive: 2.95, inactive: -0.705 and inactive: -0.544.
The corresponding values for `CN1C(CSCC(F)(F)F)Nc2cc(Cl)c(S(N)(=O)=O)cc2S1(=O)=O` (stereo unspecified) [Polythiazide] are inactive: 0.902, inactive: 0.106 and inactive: -1.42.
Regarding `CCOC(=O)c1ccc(OCCN2C[C@H](O)[C@@H](O)[C@H](O)[C@H]2CO)cc1`, the TEAD-luciferase reporter activity is, setting by setting: (compound concentration: 200 nM) inactive: 2.45; (compound concentration: 2 uM) inactive: 0.551; (compound concentration: 10 uM) inactive: -0.386.
Turning to `CC(C)OC(=O)Nc1ccc2nc(-c3cscn3)[nH]c2c1` [Cambendazole], the TEAD-luciferase reporter activity was inactive: 3.86 (compound concentration: 200 nM) and active: 5.06 (compound concentration: 10 uM).
In the case of `OCCN1CCN(CCCN2c3ccccc3C=Cc3ccccc32)CC1` [Opipramol hydrochloride], the TEAD-luciferase reporter activity runs as follows: (compound concentration: 200 nM) inactive: -0.178; (compound concentration: 2 uM) inactive: -0.54; (compound concentration: 10 uM) inactive: 0.37.
The like results for `O=S1(=O)CCN(CN2CCS(=O)(=O)NC2)CN1` [taurolidine] were, in that order, inactive: -1.08, active: 5.2 and inactive: -0.539.
The corresponding values for `C[C@@H]1C[C@H]2[C@@H]3CCC4=CC(=O)C=C[C@]4(C)C3=CC[C@]2(C)[C@H]1C(=O)CN1CCN(c2cc(N3CCCC3)nc(N3CCCC3)n2)CC1` are inactive: -0.811, inactive: 0.446 and inactive: -0.865.
